Assay results: the supplement of paper PMC10849652
The other results are listed elsewhere or left out.

Amino acid sequences for entries named in this document (tags omitted). A change or cut given only in a name is not applied to a line headed by its entry.
UniProt Q92747, whole entry, looked up: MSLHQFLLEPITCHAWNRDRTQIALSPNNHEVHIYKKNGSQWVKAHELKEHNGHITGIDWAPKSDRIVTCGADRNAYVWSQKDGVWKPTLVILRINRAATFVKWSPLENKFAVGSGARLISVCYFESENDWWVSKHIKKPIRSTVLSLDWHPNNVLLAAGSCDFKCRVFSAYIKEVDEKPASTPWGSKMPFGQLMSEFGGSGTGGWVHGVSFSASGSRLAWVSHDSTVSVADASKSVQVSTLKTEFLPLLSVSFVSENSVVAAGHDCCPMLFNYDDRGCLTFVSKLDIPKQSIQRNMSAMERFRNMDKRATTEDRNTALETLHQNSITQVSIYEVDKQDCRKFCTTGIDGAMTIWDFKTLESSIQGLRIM
UniProt Q5TC12: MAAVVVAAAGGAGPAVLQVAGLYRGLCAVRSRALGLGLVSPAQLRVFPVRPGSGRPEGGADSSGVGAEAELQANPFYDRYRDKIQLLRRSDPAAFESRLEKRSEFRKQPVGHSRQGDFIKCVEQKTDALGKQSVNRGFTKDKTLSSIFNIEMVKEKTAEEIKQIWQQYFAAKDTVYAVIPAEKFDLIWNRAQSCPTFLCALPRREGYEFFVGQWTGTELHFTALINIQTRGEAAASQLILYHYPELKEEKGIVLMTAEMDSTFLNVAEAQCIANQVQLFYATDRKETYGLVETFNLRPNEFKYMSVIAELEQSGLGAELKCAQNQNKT
UniProt P15336: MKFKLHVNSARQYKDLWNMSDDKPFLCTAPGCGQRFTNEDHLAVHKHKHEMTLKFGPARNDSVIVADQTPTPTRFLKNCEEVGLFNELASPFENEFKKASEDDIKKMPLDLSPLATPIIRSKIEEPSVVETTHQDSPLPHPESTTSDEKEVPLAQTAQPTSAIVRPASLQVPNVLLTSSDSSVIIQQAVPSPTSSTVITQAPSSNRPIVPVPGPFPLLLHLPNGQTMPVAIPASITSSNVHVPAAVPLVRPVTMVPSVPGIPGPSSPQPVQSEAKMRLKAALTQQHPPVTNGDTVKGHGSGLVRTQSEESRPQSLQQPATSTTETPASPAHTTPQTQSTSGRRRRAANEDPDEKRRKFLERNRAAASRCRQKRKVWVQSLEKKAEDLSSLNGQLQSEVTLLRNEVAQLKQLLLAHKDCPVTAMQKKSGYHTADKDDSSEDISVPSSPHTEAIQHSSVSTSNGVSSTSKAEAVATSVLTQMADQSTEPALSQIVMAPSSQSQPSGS
UniProt O75915: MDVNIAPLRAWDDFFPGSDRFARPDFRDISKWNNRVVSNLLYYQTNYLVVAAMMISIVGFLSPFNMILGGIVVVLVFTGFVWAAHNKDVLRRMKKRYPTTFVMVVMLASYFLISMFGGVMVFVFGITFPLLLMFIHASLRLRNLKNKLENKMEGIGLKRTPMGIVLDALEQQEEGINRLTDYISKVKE
UniProt Q9H2C2: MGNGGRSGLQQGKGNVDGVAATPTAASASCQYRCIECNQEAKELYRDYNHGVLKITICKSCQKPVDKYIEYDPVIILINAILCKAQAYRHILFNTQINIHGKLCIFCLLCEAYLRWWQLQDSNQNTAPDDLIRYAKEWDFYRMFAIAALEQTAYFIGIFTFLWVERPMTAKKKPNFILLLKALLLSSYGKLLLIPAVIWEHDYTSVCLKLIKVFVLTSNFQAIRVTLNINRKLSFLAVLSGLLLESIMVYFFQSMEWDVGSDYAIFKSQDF
UniProt Q9HD20: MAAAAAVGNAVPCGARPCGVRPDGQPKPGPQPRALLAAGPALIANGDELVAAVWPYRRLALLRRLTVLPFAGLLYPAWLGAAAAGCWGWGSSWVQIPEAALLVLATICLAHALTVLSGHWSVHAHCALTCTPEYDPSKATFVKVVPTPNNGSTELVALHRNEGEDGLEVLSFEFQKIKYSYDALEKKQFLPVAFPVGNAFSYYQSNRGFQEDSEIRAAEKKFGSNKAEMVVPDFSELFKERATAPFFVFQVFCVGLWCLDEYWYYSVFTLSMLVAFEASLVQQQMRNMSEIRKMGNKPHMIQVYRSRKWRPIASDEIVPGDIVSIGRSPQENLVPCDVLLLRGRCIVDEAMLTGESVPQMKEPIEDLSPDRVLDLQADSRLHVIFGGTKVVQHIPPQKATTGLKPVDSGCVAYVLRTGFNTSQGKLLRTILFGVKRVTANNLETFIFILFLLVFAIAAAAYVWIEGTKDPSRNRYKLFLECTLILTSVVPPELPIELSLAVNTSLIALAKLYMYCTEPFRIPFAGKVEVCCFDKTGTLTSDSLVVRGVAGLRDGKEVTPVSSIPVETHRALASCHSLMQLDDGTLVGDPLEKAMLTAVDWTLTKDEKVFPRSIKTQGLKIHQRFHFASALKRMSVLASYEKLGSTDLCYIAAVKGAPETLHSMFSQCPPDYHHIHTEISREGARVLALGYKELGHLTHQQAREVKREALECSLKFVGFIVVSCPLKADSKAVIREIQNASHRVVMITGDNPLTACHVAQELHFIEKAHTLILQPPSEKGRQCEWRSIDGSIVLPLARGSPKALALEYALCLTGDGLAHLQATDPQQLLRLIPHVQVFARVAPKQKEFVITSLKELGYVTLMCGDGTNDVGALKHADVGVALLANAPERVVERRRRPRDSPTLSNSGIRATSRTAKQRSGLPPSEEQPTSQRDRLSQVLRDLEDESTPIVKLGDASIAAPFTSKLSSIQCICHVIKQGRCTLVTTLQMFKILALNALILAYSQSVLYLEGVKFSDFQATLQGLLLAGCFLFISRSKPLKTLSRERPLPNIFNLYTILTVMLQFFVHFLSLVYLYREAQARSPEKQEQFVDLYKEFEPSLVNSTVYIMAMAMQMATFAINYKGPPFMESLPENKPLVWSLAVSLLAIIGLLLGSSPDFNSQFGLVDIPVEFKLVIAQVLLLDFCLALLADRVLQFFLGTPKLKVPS
UniProt Q13510, whole entry, looked up: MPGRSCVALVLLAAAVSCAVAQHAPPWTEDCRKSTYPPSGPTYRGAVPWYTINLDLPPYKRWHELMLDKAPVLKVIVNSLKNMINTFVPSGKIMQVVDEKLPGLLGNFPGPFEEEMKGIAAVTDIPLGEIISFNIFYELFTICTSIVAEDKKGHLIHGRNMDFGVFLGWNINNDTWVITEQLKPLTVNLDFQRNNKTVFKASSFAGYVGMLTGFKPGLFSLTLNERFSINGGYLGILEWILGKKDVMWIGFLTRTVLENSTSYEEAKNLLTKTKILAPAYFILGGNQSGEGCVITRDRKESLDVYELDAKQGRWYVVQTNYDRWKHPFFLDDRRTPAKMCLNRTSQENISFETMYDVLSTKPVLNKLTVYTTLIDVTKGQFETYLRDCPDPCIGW
UniProt Q9Y294, whole entry, looked up: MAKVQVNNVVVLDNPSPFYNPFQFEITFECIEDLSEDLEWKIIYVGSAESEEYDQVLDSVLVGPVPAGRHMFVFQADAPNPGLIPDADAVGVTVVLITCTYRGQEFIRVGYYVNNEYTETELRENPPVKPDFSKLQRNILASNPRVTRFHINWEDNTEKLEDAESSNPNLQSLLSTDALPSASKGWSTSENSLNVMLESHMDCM
UniProt Q6DD88: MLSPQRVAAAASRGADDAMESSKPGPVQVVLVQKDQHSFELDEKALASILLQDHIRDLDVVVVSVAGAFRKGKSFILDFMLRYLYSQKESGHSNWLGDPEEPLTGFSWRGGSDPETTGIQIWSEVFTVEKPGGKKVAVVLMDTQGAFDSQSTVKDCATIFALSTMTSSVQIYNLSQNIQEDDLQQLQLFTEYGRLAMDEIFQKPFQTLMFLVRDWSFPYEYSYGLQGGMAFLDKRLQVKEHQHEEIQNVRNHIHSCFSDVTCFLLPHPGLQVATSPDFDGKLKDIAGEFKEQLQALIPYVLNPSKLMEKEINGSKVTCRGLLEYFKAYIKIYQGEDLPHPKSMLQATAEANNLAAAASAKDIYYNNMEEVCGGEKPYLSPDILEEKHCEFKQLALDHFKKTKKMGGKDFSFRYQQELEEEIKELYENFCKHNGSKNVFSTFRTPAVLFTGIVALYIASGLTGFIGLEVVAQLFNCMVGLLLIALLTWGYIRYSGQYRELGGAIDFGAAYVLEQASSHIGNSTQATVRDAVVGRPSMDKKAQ
UniProt O75964: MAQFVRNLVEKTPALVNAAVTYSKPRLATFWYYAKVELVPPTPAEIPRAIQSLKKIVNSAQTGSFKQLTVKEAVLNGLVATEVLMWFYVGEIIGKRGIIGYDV
UniProt Q9NVT9: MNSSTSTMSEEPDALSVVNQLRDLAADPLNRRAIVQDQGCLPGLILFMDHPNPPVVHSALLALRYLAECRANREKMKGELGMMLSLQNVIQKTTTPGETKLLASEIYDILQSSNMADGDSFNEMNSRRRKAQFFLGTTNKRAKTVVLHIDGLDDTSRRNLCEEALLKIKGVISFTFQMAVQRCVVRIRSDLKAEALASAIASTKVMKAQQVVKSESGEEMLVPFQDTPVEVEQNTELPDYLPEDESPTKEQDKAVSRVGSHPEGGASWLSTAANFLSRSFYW
UniProt Q7L266: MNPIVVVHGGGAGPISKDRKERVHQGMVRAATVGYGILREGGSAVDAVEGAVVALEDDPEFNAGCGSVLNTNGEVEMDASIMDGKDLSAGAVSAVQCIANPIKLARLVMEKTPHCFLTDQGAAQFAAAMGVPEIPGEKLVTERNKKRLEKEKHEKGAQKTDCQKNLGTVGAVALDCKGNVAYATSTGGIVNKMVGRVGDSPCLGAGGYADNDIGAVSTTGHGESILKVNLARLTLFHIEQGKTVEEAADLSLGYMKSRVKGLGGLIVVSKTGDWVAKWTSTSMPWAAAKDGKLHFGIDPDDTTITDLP
UniProt O94817, whole entry, looked up: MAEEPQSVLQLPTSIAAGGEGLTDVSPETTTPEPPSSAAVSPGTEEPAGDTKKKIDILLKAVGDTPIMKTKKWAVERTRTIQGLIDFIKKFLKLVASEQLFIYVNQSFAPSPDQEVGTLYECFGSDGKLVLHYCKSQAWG
UniProt P56381: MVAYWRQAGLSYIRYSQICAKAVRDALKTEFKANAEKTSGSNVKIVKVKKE
UniProt O43681: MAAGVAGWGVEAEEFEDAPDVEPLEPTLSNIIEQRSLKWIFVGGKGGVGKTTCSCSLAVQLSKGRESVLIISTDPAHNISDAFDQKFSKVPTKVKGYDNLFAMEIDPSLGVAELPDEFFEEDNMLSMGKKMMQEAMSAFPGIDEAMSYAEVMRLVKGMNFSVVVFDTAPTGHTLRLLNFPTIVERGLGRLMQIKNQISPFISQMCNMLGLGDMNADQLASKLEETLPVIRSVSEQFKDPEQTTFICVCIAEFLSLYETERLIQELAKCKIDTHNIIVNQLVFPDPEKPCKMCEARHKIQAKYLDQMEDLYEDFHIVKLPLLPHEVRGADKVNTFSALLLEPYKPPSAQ
UniProt Q9ULH1: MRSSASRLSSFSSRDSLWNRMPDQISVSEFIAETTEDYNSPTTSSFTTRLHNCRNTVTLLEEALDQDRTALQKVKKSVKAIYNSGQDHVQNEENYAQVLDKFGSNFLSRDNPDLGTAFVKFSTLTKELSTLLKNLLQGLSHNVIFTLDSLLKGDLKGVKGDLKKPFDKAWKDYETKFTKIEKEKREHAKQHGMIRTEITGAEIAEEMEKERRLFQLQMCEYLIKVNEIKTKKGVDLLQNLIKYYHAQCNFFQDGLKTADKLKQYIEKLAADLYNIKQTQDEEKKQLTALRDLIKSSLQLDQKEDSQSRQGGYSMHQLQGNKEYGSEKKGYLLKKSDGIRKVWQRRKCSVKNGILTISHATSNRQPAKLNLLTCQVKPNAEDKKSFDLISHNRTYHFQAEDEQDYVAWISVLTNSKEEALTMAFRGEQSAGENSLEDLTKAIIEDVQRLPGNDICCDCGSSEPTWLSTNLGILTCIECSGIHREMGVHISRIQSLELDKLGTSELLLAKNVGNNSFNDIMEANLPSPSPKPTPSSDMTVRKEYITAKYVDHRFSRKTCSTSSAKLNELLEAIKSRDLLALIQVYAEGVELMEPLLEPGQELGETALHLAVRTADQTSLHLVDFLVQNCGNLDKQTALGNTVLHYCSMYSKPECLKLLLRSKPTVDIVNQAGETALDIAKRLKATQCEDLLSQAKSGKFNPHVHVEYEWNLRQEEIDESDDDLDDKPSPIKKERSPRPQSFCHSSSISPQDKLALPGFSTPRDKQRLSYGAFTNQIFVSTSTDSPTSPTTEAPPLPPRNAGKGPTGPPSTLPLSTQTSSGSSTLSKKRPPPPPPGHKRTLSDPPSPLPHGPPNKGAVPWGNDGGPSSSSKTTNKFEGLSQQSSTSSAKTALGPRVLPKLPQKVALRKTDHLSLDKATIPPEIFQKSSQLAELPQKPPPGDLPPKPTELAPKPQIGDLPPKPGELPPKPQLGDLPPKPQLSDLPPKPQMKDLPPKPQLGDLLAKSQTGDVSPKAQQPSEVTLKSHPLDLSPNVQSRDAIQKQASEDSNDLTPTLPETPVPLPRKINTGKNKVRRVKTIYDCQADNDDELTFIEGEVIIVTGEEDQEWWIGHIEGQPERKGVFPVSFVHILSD
UniProt P48047: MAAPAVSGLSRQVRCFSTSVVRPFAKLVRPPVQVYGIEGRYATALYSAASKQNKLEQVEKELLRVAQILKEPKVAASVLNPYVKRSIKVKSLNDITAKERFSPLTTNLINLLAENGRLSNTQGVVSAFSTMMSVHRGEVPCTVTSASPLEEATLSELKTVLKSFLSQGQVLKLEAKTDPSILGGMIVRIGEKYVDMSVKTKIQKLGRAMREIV

compound: c1cn2cc(-c3ccc4cn[nH]c4c3)nc(Nc3ccc(N4CCOCC4)cc3)c2n1 [entospletinib]; experiment: log2 fold change, soluble protein after heating vs DMSO (PISA); higher = thermal stabilisation; K562 cells, 10 uM, 30 min; active = over 0.2 and 3.5 SD of the protein, either way, in both replicates (recomputed)
Outline: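 For each measurement, 10 μM compound was applied for 30 min to K562 cells at 2×10^6 cells/mL. Aliquots were heated for 3 min across 48°C-58°C, pooled, and extracted in PBS with 0.5% NP-40 at 4°C; the supernatant after 21,000xg for 90 min was soluble protein. This was quantified by TMTpro 16plex LC-MS/MS with channel sums equalised, and thermal stability was reported relative to control samples from duplicates, on a log2 fold-change scale.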

log2 fold change, inactive:
ATP5F1A (UniProt P25705) -0.019, ARPC1A (UniProt Q92747) -0.104, ATPAF1 (UniProt Q5TC12) 0.086, ATF2 (UniProt P15336) -0.06, ARL6IP5 (UniProt O75915) -0.029, ATP6AP2 (UniProt O75787) -0.008, ARV1 (UniProt Q9H2C2) -0.001, ATP13A1 (UniProt Q9HD20) 0.004, ASAH1 isoform 2 (UniProt Q13510) -0.011, ASF1A (UniProt Q9Y294) 0.015, ATL3 (UniProt Q6DD88) -0.066, ATP5MG (UniProt O75964) 0.099, ARPC4 isoform 3 (UniProt P59998) -0.028, ARMC1 (UniProt Q9NVT9) -0.064, ASRGL1 (UniProt Q7L266) -0.012, ATG12 (UniProt O94817) 0.044, ASPM (UniProt Q8IZT6) 0.057, ATP5F1E (UniProt P56381) 0.025, ATG2B (UniProt Q96BY7) -0.008, ARPC2 (UniProt O15144) -0.021, ASNA1 (UniProt O43681) 0.007, ASAP1 isoform 2 (UniProt Q9ULH1) 0.031, ATP5PO (UniProt P48047) 0.076
